Source: PMC8377144 (Signal Transduction and Targeted Therapy, 2021)

Assay: general procedure: Boc solid-phase peptide synthesis; active ester chemistry
Conditions: whole synthesis

Question: Which “final HPLC purity” value does the source give for Ac-TFFYGGSRGKRNNFKTEEY-OH here?
Answer: 95%
